Data from the supplement of paper PMC10849652.
Some of the results follow.

Chains of the proteins cited; added tags and fusions are not shown. Lines headed by an entry give the natural chain unless they say otherwise; changes in a name come on top.
UniProt Q96FV9: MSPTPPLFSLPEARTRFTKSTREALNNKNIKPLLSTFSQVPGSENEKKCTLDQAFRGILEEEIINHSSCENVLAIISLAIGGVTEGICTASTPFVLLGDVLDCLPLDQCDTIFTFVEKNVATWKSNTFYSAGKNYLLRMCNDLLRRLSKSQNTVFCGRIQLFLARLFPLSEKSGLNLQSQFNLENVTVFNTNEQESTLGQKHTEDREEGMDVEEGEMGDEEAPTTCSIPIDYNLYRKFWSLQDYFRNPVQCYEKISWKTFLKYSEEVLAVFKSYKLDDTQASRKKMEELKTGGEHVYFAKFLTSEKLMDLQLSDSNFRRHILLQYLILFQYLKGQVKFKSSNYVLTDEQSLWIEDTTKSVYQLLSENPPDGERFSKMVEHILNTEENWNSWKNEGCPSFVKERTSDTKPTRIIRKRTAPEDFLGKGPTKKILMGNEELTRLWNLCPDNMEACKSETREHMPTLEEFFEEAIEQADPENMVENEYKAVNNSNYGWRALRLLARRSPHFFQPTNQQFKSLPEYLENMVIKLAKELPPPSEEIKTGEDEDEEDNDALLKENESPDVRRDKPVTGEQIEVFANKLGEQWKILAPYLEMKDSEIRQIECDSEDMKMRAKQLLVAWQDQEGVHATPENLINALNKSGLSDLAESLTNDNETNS
UniProt Q9NWX6: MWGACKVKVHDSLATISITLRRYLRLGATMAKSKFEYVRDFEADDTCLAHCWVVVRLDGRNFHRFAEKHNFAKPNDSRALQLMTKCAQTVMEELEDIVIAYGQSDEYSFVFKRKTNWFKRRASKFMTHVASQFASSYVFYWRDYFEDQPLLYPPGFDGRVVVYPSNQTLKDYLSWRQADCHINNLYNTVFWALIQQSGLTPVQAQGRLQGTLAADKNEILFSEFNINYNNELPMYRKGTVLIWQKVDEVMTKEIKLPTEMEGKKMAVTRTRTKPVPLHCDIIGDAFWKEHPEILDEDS
UniProt Q9NZ01: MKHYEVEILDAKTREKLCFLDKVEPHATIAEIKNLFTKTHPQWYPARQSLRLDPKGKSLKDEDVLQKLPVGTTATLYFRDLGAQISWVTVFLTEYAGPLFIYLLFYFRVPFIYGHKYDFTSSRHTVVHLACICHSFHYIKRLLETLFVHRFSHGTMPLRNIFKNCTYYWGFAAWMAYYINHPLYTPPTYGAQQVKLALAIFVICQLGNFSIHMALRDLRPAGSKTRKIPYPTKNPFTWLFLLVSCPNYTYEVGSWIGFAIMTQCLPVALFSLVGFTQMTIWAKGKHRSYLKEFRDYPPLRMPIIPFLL
UniProt Q8WVM0: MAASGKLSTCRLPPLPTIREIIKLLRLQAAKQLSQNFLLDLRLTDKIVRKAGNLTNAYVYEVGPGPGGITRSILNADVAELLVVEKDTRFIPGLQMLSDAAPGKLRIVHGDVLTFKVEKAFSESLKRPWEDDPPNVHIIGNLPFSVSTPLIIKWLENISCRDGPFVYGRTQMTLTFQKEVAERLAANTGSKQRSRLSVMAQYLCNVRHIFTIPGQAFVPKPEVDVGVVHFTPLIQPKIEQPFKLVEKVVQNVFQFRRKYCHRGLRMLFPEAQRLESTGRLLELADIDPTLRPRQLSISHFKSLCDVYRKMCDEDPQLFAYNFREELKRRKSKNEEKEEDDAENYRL
UniProt Q9BTW9: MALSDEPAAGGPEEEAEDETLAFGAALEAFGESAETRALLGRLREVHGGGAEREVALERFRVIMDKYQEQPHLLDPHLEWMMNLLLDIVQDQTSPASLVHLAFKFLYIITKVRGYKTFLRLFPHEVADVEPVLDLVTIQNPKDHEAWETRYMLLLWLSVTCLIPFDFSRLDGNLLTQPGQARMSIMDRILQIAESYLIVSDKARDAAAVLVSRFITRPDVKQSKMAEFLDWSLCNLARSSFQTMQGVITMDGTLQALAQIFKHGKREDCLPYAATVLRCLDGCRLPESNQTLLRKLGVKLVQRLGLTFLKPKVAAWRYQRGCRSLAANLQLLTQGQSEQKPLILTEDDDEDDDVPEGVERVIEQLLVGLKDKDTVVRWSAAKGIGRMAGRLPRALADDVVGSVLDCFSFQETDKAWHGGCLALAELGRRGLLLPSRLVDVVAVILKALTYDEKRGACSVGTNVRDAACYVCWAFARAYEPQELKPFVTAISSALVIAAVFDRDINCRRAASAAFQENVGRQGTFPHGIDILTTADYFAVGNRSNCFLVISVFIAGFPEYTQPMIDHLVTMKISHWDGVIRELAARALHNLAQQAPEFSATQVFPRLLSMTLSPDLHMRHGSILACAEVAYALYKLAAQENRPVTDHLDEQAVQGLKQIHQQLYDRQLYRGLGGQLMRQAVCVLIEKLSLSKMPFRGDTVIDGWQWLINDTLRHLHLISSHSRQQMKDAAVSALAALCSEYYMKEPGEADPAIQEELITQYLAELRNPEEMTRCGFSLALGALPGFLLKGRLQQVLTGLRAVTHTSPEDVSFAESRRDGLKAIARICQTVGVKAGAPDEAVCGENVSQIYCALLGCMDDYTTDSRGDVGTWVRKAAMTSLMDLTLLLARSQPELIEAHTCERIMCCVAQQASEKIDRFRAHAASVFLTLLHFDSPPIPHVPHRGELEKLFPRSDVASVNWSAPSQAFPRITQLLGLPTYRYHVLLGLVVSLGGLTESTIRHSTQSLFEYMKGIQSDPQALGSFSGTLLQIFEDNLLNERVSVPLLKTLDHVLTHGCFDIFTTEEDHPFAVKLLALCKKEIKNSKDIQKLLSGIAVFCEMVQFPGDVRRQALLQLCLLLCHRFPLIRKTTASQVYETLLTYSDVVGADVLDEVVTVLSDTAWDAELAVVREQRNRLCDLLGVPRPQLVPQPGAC
UniProt P35443: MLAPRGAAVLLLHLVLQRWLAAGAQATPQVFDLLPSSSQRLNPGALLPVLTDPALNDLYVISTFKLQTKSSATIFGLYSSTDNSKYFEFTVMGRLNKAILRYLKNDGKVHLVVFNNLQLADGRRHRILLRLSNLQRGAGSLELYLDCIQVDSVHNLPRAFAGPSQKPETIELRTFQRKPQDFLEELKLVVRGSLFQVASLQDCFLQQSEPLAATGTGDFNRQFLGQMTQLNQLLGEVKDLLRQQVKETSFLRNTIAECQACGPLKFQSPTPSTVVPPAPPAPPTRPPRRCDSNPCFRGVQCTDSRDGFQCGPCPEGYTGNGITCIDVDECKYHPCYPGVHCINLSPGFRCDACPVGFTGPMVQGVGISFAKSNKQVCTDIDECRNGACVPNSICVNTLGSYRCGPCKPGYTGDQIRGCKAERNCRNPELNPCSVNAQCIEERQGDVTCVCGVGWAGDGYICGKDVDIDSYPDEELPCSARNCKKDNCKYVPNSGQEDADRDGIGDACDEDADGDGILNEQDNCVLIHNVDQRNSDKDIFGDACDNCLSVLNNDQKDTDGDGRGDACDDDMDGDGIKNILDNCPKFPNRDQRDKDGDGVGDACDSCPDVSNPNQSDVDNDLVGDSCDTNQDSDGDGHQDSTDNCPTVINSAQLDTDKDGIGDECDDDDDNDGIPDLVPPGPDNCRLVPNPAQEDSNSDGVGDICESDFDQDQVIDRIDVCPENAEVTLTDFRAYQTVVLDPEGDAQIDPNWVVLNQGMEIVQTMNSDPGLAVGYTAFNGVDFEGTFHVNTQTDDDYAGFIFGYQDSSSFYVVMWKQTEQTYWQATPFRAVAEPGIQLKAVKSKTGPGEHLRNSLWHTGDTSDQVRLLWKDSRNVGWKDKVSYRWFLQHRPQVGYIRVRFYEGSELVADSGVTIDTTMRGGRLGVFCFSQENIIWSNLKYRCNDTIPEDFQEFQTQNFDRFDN
UniProt Q96BZ9: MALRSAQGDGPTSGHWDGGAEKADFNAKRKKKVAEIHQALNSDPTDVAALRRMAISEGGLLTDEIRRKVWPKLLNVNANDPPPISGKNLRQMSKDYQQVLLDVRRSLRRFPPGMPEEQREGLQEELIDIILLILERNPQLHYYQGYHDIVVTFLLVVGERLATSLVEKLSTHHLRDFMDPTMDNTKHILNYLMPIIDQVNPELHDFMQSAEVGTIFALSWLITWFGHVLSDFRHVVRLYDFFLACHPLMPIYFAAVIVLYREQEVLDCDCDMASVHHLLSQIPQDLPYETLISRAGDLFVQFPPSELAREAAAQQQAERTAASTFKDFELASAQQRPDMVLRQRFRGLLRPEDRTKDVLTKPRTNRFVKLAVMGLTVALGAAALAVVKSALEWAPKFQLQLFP
UniProt Q5T1C6: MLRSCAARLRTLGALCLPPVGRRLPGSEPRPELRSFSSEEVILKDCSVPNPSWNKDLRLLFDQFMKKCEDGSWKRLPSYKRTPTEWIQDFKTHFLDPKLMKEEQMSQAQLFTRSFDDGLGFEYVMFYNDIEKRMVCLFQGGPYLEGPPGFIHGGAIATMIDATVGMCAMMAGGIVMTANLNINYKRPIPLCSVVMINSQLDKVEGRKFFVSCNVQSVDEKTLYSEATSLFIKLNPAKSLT
UniProt O00142: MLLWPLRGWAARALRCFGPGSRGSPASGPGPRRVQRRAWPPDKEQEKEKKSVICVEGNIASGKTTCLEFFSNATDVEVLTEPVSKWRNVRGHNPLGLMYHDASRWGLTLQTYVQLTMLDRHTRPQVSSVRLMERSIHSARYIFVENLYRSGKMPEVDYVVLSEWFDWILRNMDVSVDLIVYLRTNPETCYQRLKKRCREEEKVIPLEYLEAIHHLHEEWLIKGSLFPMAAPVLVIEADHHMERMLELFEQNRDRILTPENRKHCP
UniProt Q9NUY8: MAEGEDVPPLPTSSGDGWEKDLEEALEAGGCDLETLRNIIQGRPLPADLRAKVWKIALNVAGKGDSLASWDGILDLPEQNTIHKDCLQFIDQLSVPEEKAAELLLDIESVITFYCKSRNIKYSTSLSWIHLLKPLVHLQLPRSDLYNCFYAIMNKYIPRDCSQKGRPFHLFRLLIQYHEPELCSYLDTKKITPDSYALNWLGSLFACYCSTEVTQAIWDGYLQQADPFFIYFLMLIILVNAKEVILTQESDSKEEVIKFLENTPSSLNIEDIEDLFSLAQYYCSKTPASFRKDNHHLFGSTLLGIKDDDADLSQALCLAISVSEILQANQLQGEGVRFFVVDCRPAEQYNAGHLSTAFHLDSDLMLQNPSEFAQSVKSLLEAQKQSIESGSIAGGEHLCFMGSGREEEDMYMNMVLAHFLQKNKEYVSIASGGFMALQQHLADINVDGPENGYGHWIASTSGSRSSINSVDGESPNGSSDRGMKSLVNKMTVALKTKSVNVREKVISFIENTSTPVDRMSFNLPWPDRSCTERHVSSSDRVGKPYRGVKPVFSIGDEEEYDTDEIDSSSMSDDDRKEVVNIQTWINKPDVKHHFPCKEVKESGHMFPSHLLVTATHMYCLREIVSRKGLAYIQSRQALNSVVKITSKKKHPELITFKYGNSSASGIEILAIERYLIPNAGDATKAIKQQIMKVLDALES
UniProt Q96MV1: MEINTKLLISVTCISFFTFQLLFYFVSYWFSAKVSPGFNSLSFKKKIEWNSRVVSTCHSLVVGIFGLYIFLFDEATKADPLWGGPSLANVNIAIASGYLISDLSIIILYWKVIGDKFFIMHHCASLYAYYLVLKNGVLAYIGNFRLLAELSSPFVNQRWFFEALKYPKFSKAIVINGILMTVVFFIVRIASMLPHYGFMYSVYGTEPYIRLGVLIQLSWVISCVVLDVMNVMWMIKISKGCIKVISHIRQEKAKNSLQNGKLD
UniProt Q86XR7, whole entry, looked up: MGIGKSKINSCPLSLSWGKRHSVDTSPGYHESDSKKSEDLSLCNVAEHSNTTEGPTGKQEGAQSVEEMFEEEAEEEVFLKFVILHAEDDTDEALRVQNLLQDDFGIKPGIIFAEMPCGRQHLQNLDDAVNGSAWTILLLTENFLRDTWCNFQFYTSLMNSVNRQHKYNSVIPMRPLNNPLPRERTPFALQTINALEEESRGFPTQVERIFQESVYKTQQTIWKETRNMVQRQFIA
UniProt P02787, whole entry, looked up: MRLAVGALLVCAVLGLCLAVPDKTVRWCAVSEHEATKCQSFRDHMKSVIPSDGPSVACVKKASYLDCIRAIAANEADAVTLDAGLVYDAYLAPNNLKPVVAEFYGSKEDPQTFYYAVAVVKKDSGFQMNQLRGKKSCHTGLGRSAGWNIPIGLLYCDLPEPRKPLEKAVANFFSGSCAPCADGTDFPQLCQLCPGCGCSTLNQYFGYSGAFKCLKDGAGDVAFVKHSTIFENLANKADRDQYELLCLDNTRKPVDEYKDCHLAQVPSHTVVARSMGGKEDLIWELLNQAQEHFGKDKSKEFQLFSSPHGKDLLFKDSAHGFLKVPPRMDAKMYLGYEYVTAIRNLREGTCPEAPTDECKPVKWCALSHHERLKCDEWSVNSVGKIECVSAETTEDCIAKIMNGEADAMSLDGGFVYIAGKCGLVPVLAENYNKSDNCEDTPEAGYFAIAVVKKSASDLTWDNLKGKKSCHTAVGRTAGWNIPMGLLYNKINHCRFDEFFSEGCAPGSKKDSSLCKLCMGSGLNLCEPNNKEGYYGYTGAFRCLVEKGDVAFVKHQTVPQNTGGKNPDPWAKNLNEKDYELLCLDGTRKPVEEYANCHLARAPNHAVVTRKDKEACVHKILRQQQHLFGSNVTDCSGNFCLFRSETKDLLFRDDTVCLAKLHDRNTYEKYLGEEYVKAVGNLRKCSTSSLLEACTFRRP

Experiments:
Assay in all cases: log2 fold change, soluble protein after heating vs DMSO (PISA); higher = thermal stabilisation; K562 cells, 10 uM, 30 min; active = over 0.2 and 3.5 SD of the protein, either way, in both replicates (recomputed)
[1] = compound: NC(=O)Nc1cc(-c2cccc(F)c2)sc1C(=O)N[C@H]1CCCNC1
How it was run: (§1)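 Thermal stability values are relative to control samples and come from duplicates. They are expressed as log2 fold changes. For measurement, K562 cells (2×10^6 cells/mL) received 10 μM compound for 30 min, and aliquots were heated for 3 min over 48°C-58°C, pooled, and extracted at 4°C in PBS with 0.5% NP-40. Soluble protein, the supernatant after 21,000xg for 90 min, was quantified by TMTpro 16plex LC-MS/MS with equalised channel sums.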

[2] = compound: NC(=O)c1cnc(N[C@@H]2CCCC[C@@H]2N)nc1Nc1cccc(-n2nccn2)c1
How it was run: as §1

[3] = compound: NC1(c2ccc(-c3nc4ccn5c(=O)[nH]nc5c4cc3-c3ccccc3)cc2)CCC1
How it was run: as §1

[4] = compound: NCC(=O)Nc1ccc(-n2nc(C(F)(F)F)cc2-c2ccc3c(ccc4ccccc43)c2)cc1
How it was run: as §1

[5] = compound: Nc1ccccc1NC(=O)c1ccc(CNC(=O)OCc2cccnc2)cc1 [entinostat]
How it was run: as §1

[6] = compound: O=C(CCCCCCC(=O)Nc1ccccc1)NO [vorinostat]
How it was run: as §1

[7] = compound: O=C(CCCCCCNC(=O)c1cnc(N(c2ccccc2)c2ccccc2Cl)nc1)NO [citarinostat]
How it was run: as §1

[8] = compound: O=C(O)c1ccc2c(c1)nc(Nc1cccc(Cl)c1)c1ccncc12 [silmitasertib]
How it was run: as §1

[9] = compound: O=C1NC(=O)C(c2cnc3ccccn23)=C1c1cn2c3c(cc(F)cc13)CN(C(=O)N1CCCCC1)CC2
How it was run: as §1

[10] = compound: c1cc(OCCN2CCCCC2)cc(-c2n[nH]c3ccc(-c4nnc[nH]4)cc23)c1
How it was run: as §1

Target	log2 fold change [1]	log2 fold change [2]	log2 fold change [3]	log2 fold change [4]	log2 fold change [5]	log2 fold change [6]	log2 fold change [7]	log2 fold change [8]	log2 fold change [9]	log2 fold change [10]
THOC1 (UniProt Q96FV9)	inactive: -0.008	inactive: -0.041	inactive: -0.054	inactive: -0.119	inactive: 0.019	inactive: 0.192	inactive: -0.026	inactive: 0.007	inactive: 0.075	inactive: -0.12
THNSL1 (UniProt Q8IYQ7)	inactive: -0.024	inactive: -0.026	inactive: -0.094	inactive: 0.009	inactive: -0.016	inactive: 0.033	inactive: -0.045	inactive: -0.016	inactive: -0.025	inactive: -0.056
TK1 (UniProt P04183)	inactive: 0.021	inactive: 0.018	inactive: 0.02	inactive: 0.031	inactive: -0.068	inactive: -0.007	inactive: 0.016	inactive: 0.013	inactive: -0.025	inactive: -0.027
TIMM44 (UniProt O43615)	inactive: -0.085	inactive: -0.141	active: -0.372	inactive: -0.023	inactive: 0.084	inactive: 0.04	inactive: 0.066	inactive: -0.041	inactive: -0.027	inactive: -0.048
THG1L (UniProt Q9NWX6)	inactive: -0.012	inactive: 0.006	inactive: -0.038	inactive: -0.068	inactive: -0.022	inactive: 0.042	inactive: 0.041	inactive: -0.009	inactive: -0.048	inactive: 0.005
THOC5 (UniProt Q13769)	inactive: 0.002	inactive: -0.058	inactive: 0.051	inactive: -0.055	inactive: -0.019	inactive: -0.007	inactive: -0.035	inactive: 0.081	inactive: -0.05	inactive: -0.04
TECR (UniProt Q9NZ01)	inactive: 0	inactive: -0.071	inactive: -0.087	inactive: -0.048	inactive: 0.042	inactive: 0.064	inactive: 0.07	inactive: 0.025	inactive: -0.07	inactive: -0.056
TFB1M (UniProt Q8WVM0)	inactive: -0.132	inactive: 0.126	inactive: -0.107	inactive: 0.126	inactive: -0.134	inactive: 0.008	inactive: -0.094	inactive: 0.042	inactive: 0.237	inactive: -0.036
TBCD (UniProt Q9BTW9)	inactive: 0.003	inactive: -0.057	inactive: -0.146	inactive: -0.03	inactive: 0.03	inactive: -0.013	inactive: 0.028	inactive: 0.039	inactive: -0.001	inactive: -0.063
THBS4 (UniProt P35443)	inactive: -0.013	inactive: 0.022	inactive: 0.007	inactive: -0.062	inactive: -0.038	inactive: 0.015	inactive: -0.126	inactive: 0.216	inactive: 0.06	inactive: 0.207
TCEA1 (UniProt P23193)	inactive: -0.005	inactive: -0.023	inactive: -0.029	inactive: -0.014	inactive: 0.035	inactive: 0.016	inactive: 0.008	inactive: -0.023	inactive: -0.012	inactive: -0.022
TBC1D20 isoform 3 (UniProt Q96BZ9)	inactive: -0.062	inactive: 0.052	inactive: 0.027	inactive: -0.08	inactive: 0.026	inactive: 0.033	inactive: 0.293	inactive: 0.03	inactive: -0.007	inactive: 0.03
THOP1 (UniProt P52888)	inactive: 0.025	inactive: 0.001	inactive: 0.033	inactive: 0.008	inactive: -0.034	inactive: -0.005	inactive: 0.06	inactive: -0.037	inactive: -0.014	inactive: 0.014
TJP2 isoform 7 (UniProt Q9UDY2)	inactive: -0.129	inactive: -0.007	inactive: -0.171	inactive: -0.051	inactive: 0.014	inactive: 0.161	inactive: 0.039	inactive: -0.061	inactive: 0.025	inactive: -0.167
TFAM (UniProt Q00059)	inactive: -0.079	inactive: -0.006	inactive: 0.085	inactive: 0.011	inactive: -0.035	inactive: 0.005	inactive: -0.151	inactive: 0.011	inactive: 0.06	inactive: -0.115
THUMPD2 (UniProt Q9BTF0)	inactive: -0.014	inactive: -0.03	inactive: -0.004	inactive: 0.03	inactive: -0.015	inactive: 0.063	inactive: -0.039	inactive: -0.015	inactive: 0.032	inactive: -0.094
TES (UniProt Q9UGI8)	inactive: 0.006	inactive: 0.006	inactive: -0.018	inactive: 0	inactive: -0.012	inactive: -0.004	inactive: 0.044	inactive: -0.022	inactive: -0.019	inactive: -0.011
THEM4 (UniProt Q5T1C6)	inactive: -0.043	inactive: -0.011	inactive: -0.044	inactive: 0.092	inactive: -0.03	inactive: -0.081	inactive: 0.01	inactive: -0.018	inactive: 0.011	inactive: -0.094
TK2 isoform 6 (UniProt O00142)	inactive: -0.187	inactive: -0.088	inactive: -0.044	inactive: -0.219	inactive: -0.035	inactive: 0.097	inactive: 0.013	inactive: -0.057	inactive: 0.041	inactive: -0.019
TBPL1 (UniProt P62380)	inactive: 0.068	inactive: -0.022	inactive: -0.084	inactive: -0.042	inactive: 0.026	inactive: 0.017	inactive: 0.108	inactive: 0.057	inactive: 0.118	inactive: -0.022
TBC1D9B (UniProt Q66K14)	inactive: -0.194	inactive: -0.095	inactive: -0.07	inactive: -0.012	inactive: -0.085	inactive: -0.034	inactive: 0.173	inactive: 0.021	inactive: -0.176	inactive: -0.13
TCAF1 (UniProt Q9Y4C2)	inactive: -0.002	inactive: -0.051	inactive: -0.131	inactive: -0.07	inactive: 0.024	inactive: 0.011	inactive: 0.049	inactive: 0.104	inactive: -0.032	inactive: -0.096
TBC1D23 (UniProt Q9NUY8)	inactive: 0.015	inactive: -0.135	active: -0.33	inactive: -0.009	inactive: 0.06	inactive: 0.115	inactive: 0.045	inactive: 0.02	inactive: -0.073	inactive: -0.047
TLCD4 (UniProt Q96MV1)	inactive: 0.011	inactive: -0.006	inactive: -0.089	inactive: 0.02	inactive: 0.021	inactive: -0.07	inactive: 0.102	inactive: 0.008	inactive: 0.139	inactive: -0.124
TICAM2 isoform 2 (UniProt Q86XR7)	inactive: 0.008	inactive: -0.001	inactive: -0.017	inactive: 0.027	inactive: -0.001	inactive: 0.019	inactive: 0.059	inactive: -0.003	inactive: 0.144	inactive: -0.025
TF (UniProt P02787)	inactive: -0.357	inactive: -0.004	inactive: 0.071	inactive: 0.008	inactive: -0.083	inactive: -0.131	inactive: 0.081	inactive: 0.12	inactive: 0.042	inactive: 0.655
TGM2 (UniProt P21980)	inactive: -0.004	inactive: -0.006	inactive: -0.084	inactive: 0.024	inactive: -0.003	inactive: 0.037	inactive: 0.049	inactive: -0.022	inactive: -0.04	inactive: -0.013
TJP1 (UniProt Q07157)	inactive: -0.043	inactive: -0.067	inactive: 0.033	inactive: -0.071	inactive: 0.044	inactive: 0.049	inactive: 0.041	inactive: -0.158	inactive: -0.056	inactive: -0.092
TCF3 (UniProt P15923)	inactive: 0.009	inactive: -0.092	inactive: -0.063	inactive: -0.065	inactive: 0.067	inactive: -0.117	inactive: -0.016	inactive: 0.1	inactive: -0.042	inactive: -0.053

2 records drawn at random from the list so far:
Target	log2 fold change [1]	log2 fold change [2]	log2 fold change [3]	log2 fold change [4]	log2 fold change [5]	log2 fold change [6]	log2 fold change [7]	log2 fold change [8]	log2 fold change [9]	log2 fold change [10]
THBS4 (UniProt P35443)	inactive: -0.013	inactive: 0.022	inactive: 0.007	inactive: -0.062	inactive: -0.038	inactive: 0.015	inactive: -0.126	inactive: 0.216	inactive: 0.06	inactive: 0.207
TGM2 (UniProt P21980)	inactive: -0.004	inactive: -0.006	inactive: -0.084	inactive: 0.024	inactive: -0.003	inactive: 0.037	inactive: 0.049	inactive: -0.022	inactive: -0.04	inactive: -0.013
